Data reported in paper PMC12040169 (PLOS Biology, 2025).
This is one part of the list.

Test system: T1, CTL2-GFP (C. trachomatis L2/434/Bu, GFP-expressing)
T1 construct: L2/434/Bu, GFP-expressing
Design: species or system HeLa; Intracellular C. trachomatis growth in HeLa cells, bulk GFP fluorescence relative to DMSO
Details: bulk GFP, single well; 28.5 h, 10 µM; inhibitor

| SMILES | % of control remaining [%] |
| --- | --- |
| CC(C)(CNC(=O)Cn1cccc(C(=O)NC2CCCCC2)c1=O)c1ccccc1F [CBK286068] | 138.348 |
| Nc1cccc(-c2cn(C[C@H]3CC4CCN3C[C@@H]4C(=O)NCc3cccnc3)nn2)c1 (some centres unmarked) [CBK289088] | 130.244 |
| Cc1cc(Cl)c(OCCN2CCC(C)CC2)c(Br)c1 [CBK265088G] | 100 |
| COC(=O)c1ccc2c(=O)n(CC3CCCO3)c(SCCO)nc2c1 (centres unmarked) [CBK306041] | 134.326 |
| O=C(NC1CC1)[C@H]1CN2CCC1C[C@@H]2Cn1cc(CC2CCCCC2)nn1 (some centres unmarked) [CBK288739] | 111.822 |
| COc1ccc(S(=O)(=O)N2CCN(Cc3cc(OC)c(OC)c(OC)c3)CC2)cc1 [CBK263330] | 126.902 |
| CS(=O)(=O)NCC1(c2ccccc2)CCN(S(=O)(=O)c2ccc(N3CCOCC3)nc2)CC1 [CBK051634] | 83.4257 |
| O=C1C2(c3ccccc3)CN3CN(C2)CC1(c1ccccc1)C3 [CBK262245] | 115.093 |
| CC1=C(C(=O)OCC(=O)c2ccc(C)cc2)C2C=C(Br)C=CC2N=C1c1ccc(C)cc1 (centres unmarked) [CBK264079] | 111.519 |
| Cn1cccc1C(=O)N[C@H]1C[C@@H]2C(=O)N[C@H]3CCN(C(=O)CC(C)(C)C)[C@@H]3C(=O)N2C1 [CBK289271] | 116.411 |
| CCCn1c(SCC(=O)Nc2scc(-c3cccs3)c2C(=O)OCC)n[nH]c1=O [CBK296967] | 132.54 |
| Cc1oc(NC(=O)CN2CCN(c3ccc(F)cc3)CC2)c(C#N)c1C [CBK305907] | 117.414 |
| N#Cc1ccc(CNC2(Cc3cc(-c4ccc(F)cc4)on3)COC2)cc1 [CBK289653] | 146.729 |
| NC(=O)CN1C(=O)[C@@H]2CCCN2C(=O)c2ccccc21 [CBK283090] | 68.2354 |
| COCCNCc1ccc(OCc2ccccc2)cc1 [CBK270133C] | 147.105 |
| O=S(=O)(c1ccccc1Br)N1CCOCC1 [CBK062404] | 115.223 |
| O=c1[nH]c(=O)c2cc(S(=O)(=O)N3CCN(c4ccccn4)CC3)ccc2[nH]1 [CBK286379] | 98.8966 |
| Cc1ccc(S(=O)(=O)Nc2nc(C)c(C(=O)N3CCN(C)CC3)s2)cc1 [CBK045812] | 118.46 |
| CCc1ccccc1NC(=S)Nc1cccc(C)n1 [CBK288415] | 97.2331 |
| CCOc1ccc(Nc2nc(-c3ccc(F)cc3)c(CC(=O)O)s2)cc1 [CBK296064] | 125.843 |
| CCS(=O)(=O)NC1CCN(c2nc(C(F)(F)F)nc3ccsc23)CC1 [CBK304593] | 105.997 |
| N#CCCSc1ccn(C2CC(O)C(CO)O2)c(=O)n1 (centres unmarked) [CBK201261] | 180.051 |
| O=S(=O)(NCc1ccccn1)c1ccc(Br)cc1Br [CBK262291] | 120.248 |
| CCc1nc2ccc(C(=O)N(C)CCN(C)C)cn2c1N(C)C(=O)Cc1ccccc1 [CBK146858] | 102.999 |
| c1cncc(CNCc2ccoc2)c1 [CBK001744C] | 128.961 |

| SMILES | % of control remaining [%] |
| --- | --- |
| O=C(Nc1cccc2ncccc12)c1cccc(Oc2ccccc2)c1 [CBK296716] | 97.0224 |
| CC(C)(C)OC(=O)N1CCCCC1(C)c1nnc(-c2cccnc2)o1 (centres unmarked) [CBK304714] | 122.583 |
| CCOc1cc(CNC2C3CC4CC(C3)CC2C4)cc(Cl)c1OCC(N)=O (centres unmarked) [CBK265734C] | 244.643 |
| CC(C)Cc1ccc(S(=O)(=O)Nc2ccc(C(=O)O)cc2)cc1 [CBK297930] | 89.8865 |
| COC(=O)c1sccc1NC(=O)/C=C/c1ccccc1 [CBK057041] | 135.666 |
| C=CCNc1nccnc1-c1cnc(OC)nc1OC [CBK036922] | 119.079 |
| COc1ccc(C(=O)Nc2ccccc2O)cc1S(=O)(=O)N1CCCCC1 [CBK269665] | 120.085 |
| O=C(COc1ccc2ccccc2c1)Nc1ccc(N2CCN(Cc3ccccc3)CC2)cc1 [CBK266104] | 136.378 |
| c1cncc(OCCOc2nsnc2N2CCNCC2)c1 [CBK001825G] | 88.4858 |
| COc1ccc(-c2nnc(SCC(=O)c3ccc(F)cc3)n2C2CCCCC2C)cc1 (centres unmarked) [CBK297494] | 157.468 |
| CN1CCN(S(=O)(=O)c2cccc3nsnc23)CC1 [CBK062428] | 109.354 |
| Nc1nc(C2COc3ccccc3O2)ncc1S(=O)(=O)c1ccc(Cl)cc1 (centres unmarked) [CBK074808] | 95.4545 |
| Cc1csc(NC(=O)c2cc(S(=O)(=O)N3CCCC3)cn2C)n1 [CBK295617] | 131.687 |
| NNC(=O)COc1ccc2ccccc2c1 [CBK261208] | 116.319 |
| COc1ccc(Cn2nc(NC(=O)c3cn(C)c4ccccc34)c3ccccc32)cc1 [CBK048344] | 93.0173 |
| COc1ccccc1NC(=O)C1C2NC(=S)NC1(C)Oc1c(OC)cccc12 (centres unmarked) [CBK269013] | 144.804 |
| O=C(NCC1CCCCC1)C1(Cc2ccc(-c3ccncc3)cc2)CCOCC1 [CBK285564] | 71.1432 |
| CSc1cc(-c2cccs2)[nH]c(=O)c1C#N [CBK006350] | 113.51 |
| COc1ccc(C(C)C)cc1-c1nccnc1NCC1COC(C)(C)O1 (centres unmarked) [CBK036930] | 193.272 |
| COc1ccc(N(Cc2cccnc2)C(=O)c2ccc(-c3ccccc3)[nH]c2=O)cc1 [CBK283089] | 56.1227 |
| CCCNC(c1ccccc1)c1ccncc1 (centres unmarked) [CBK028505] | 111.028 |
| O=C(NC1CCS(=O)(=O)C1)c1cnc2c(Cl)cccc2c1O (centres unmarked) [CBK304644] | 125.365 |
| Cc1cc2c(s1)c1cnn(CC(=O)OC(C)C)c(=O)c1n2C [CBK284247] | 93.9993 |
| CN(Cc1cccc(C#N)c1)Cc1nc2c(cnn2C)c(=O)[nH]1 [CBK305973] | 126.342 |
| CC(C(=O)N[C@H]1C2CCCCC2[C@@H]1c1ccccc1)N1CCOCC1 (some centres unmarked) [CBK282964] | 123.483 |

Exported bar-delimited: part of the list above
SMILES | % of control remaining [%]
NNC(=O)COc1ccc2ccccc2c1 [CBK261208] | 116.319
COc1ccc(Cn2nc(NC(=O)c3cn(C)c4ccccc34)c3ccccc32)cc1 [CBK048344] | 93.0173
